In doi:10.1101/2024.08.18.608437:
No constants are given. Whether binding was seen depends on the method and setting. Binding seen in cells or lysates may run through a third protein. Some results given as binding are weak or reduced against the parent protein; the word gives no strength.

Biological target: T1, MRE11 (UniProt P49959)
T1 sequence: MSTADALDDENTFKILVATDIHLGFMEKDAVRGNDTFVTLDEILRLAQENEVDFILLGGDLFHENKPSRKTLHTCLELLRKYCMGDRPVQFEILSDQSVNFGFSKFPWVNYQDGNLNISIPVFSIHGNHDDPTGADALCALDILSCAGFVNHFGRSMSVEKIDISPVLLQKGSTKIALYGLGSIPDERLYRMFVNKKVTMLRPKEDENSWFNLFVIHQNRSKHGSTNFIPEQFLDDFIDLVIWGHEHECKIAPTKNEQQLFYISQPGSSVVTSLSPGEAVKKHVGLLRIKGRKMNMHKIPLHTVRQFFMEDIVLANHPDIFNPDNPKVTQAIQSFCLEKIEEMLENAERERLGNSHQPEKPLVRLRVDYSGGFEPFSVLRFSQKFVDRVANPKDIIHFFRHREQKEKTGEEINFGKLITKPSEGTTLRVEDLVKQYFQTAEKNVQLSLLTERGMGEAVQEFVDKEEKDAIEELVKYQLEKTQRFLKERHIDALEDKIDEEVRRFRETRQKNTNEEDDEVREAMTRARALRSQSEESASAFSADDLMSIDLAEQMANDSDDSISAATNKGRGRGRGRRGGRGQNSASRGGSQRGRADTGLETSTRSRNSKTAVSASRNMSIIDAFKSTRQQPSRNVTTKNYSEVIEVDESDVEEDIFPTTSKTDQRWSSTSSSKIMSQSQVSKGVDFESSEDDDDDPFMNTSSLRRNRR
Test: co-IP

B1: DNA polymerase kappa (protein, UniProt Q9UBT6 1-870)
chain: MDSTKEKCDSYKDDLLLRMGLNDNKAGMEGLDKEKINKIIMEATKGSRFYGNELKKEKQVNQRIENMMQQKAQITSQQLRKAQLQVDRFAMELEQSRNLSNTIVHIDMDAFYAAVEMRDNPELKDKPIAVGSMSMLSTSNYHARRFGVRAAMPGFIAKRLCPQLIIVPPNFDKYRAVSKEVKEILADYDPNFMAMSLDEAYLNITKHLEERQNWPEDKRRYFIKMGSSVENDNPGKEVNKLSEHERSISPLLFEESPSDVQPPGDPFQVNFEEQNNPQILQNSVVFGTSAQEVVKEIRFRIEQKTTLTASAGIAPNTMLAKVCSDKNKPNGQYQILPNRQAVMDFIKDLPIRKVSGIGKVTEKMLKALGIITCTELYQQRALLSLLFSETSWHYFLHISLGLGSTHLTRDGERKSMSVERTFSEINKAEEQYSLCQELCSELAQDLQKERLKGRTVTIKLKNVNFEVKTRASTVSSVVSTAEEIFAIAKELLKTEIDADFPHPLRLRLMGVRISSFPNEEDRKHQQRSIIGFLQAGNQALSATECTLEKTDKDKFVKPLEMSHKKSFFDKKRSERKWSHQDTFKCEAVNKQSFQTSQPFQVLKKKMNENLEISENSDDCQILTCPVCFRAQGCISLEALNKHVDECLDGPSISENFKMFSCSHVSATKVNKKENVPASSLCEKQDYEAHPKIKEISSVDCIALVDTIDNSSKAESIDALSNKHSKEECSSLPSKSFNIEHCHQNSSSTVSLENEDVGSFRQEYRQPYLCEVKTGQALVCPVCNVEQKTSDLTLFNVHVDVCLNKSFIQELRKDKFNPVNQPKESSRSTGSSSGVQKAVTRTKRPGLMTKYSTSKKIKPNNPKHTLDIFFK
  binding: binds
